Experimental data: the supplement of paper PMC3334620
In all, about 33,000 sequences were measured (“E-score (-0.5 to 0.5)”: median about -0.016, highest 2% from about 0.3 on). This is one part of the list.

Molecular target: T1, Yer184c (UniProt P39961)
T1 sequence: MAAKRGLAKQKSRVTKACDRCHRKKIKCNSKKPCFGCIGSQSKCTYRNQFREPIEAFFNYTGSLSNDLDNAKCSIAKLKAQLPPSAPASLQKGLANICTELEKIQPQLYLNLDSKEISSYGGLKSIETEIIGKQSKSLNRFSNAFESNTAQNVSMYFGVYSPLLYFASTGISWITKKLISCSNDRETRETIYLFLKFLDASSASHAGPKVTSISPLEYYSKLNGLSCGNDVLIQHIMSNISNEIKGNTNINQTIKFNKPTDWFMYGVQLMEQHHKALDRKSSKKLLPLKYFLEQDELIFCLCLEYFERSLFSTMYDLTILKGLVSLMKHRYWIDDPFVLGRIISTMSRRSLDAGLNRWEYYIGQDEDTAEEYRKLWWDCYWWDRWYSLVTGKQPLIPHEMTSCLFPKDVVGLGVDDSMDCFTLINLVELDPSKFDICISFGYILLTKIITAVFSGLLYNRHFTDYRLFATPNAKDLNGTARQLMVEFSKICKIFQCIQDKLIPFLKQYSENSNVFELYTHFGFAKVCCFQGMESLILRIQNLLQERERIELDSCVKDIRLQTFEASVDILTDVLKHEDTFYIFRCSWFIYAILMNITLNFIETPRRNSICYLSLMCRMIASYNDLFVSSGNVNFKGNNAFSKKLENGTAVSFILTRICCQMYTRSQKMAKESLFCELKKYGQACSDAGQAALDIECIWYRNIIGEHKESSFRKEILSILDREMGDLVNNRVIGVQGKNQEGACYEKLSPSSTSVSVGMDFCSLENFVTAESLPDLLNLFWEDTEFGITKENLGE
Test: PBM E-score (8-mer binding enrichment) (E-score (-0.5 to 0.5)); higher = stronger / more preferred TF binding
Details: protein concentration: 100 nM; construct: GST-full length
Outline: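 PURExpress in vitro transcription/translation supplied GST-tagged yeast transcription factors, either full-length or DNA-binding domain. Applied at about 100-200 nM to universal all-10-mer Agilent arrays double-stranded by primer extension, the bound protein was detected with fluorescent anti-GST. E-scores, modified Wilcoxon-Mann-Whitney statistics, were given by the Universal PBM Analysis Suite to ungapped eight-base words pooled with their reverse complements after masliner normalisation.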

With GACCAGCC as the sequence, how does the “PBM E-score” value read?
Its value is 0.0563.

With CCCTATGA as the sequence, how does the “PBM E-score” value read?
The value was -0.143.

For CCATTGCG, which “PBM E-score” value is on record?
Its value is -0.16.

With CTCATTAA as the sequence, how does the “PBM E-score” value read?
Its value is 0.067.

For TCATTGGA, which “PBM E-score” value is on record?
Its value is 0.0906.

For AAGGCACT, which “PBM E-score” value is on record?
The value was -0.145.

TGAGACAA was tested. Which “PBM E-score” value did it give?
Its value is 0.0341.

How did the “PBM E-score” value turn out when ATGCGGTG was run?
Its value is -0.161.

Which “PBM E-score” value does the source give for CCTTGAAA here?
Its value is 0.0146.

GAACCATA was tested. Which “PBM E-score” value did it give?
Its value is 0.0328.

Which “PBM E-score” value does the source give for ATAAGCAA here?
Its value is 0.059.

For TGAGTACA, which “PBM E-score” value is on record?
The value was -0.0144.

With ATTGCACG as the sequence, how does the “PBM E-score” value read?
Its value is 0.187.

With CTCCCTGC as the sequence, how does the “PBM E-score” value read?
The value was -0.323.

Which “PBM E-score” value does the source give for ACACCTCG here?
The value was 0.0317.

For GAGGACGA, which “PBM E-score” value is on record?
The value was 0.0407.

With TGATGAAA as the sequence, how does the “PBM E-score” value read?
The value was 0.0197.

Which “PBM E-score” value does the source give for GCAGGAAA here?
Its value is -0.0351.

CCGGTAGC was tested. Which “PBM E-score” value did it give?
The value was 0.0055.

CTCAGTTA was tested. Which “PBM E-score” value did it give?
Its value is 0.102.

Which “PBM E-score” value does the source give for CGAAGAAC here?
The value was 0.186.

AATTAGTA was tested. Which “PBM E-score” value did it give?
The value was 0.196.

For AGTCTCTA, which “PBM E-score” value is on record?
The value was -0.251.

With CGGTCGAG as the sequence, how does the “PBM E-score” value read?
The value was 0.0745.

How did the “PBM E-score” value turn out when GTGCGAGA was run?
Its value is 0.0313.

Which “PBM E-score” value does the source give for CTCTCTCC here?
The value was -0.261.

With CTGGCAAG as the sequence, how does the “PBM E-score” value read?
The value was -0.105.

How did the “PBM E-score” value turn out when CAGTAGAG was run?
Its value is -0.209.

For AGCTTATG, which “PBM E-score” value is on record?
The value was 0.0779.

For ATTATCTC, which “PBM E-score” value is on record?
The value was 0.0272.

CGGTTCGA was tested. Which “PBM E-score” value did it give?
Its value is 0.232.

With AGAGCCGG as the sequence, how does the “PBM E-score” value read?
The value was 0.314.

With TAAGGAAA as the sequence, how does the “PBM E-score” value read?
The value was 0.147.

With ATTGTTAC as the sequence, how does the “PBM E-score” value read?
The value was 0.218.

For GGTGCAAC, which “PBM E-score” value is on record?
The value was 0.0255.

How did the “PBM E-score” value turn out when GAGTCGGA was run?
Its value is 0.113.

Which “PBM E-score” value does the source give for CACGACCG here?
The value was -0.16.

For AGGACGCG, which “PBM E-score” value is on record?
Its value is 0.0161.

With ACGCCGAG as the sequence, how does the “PBM E-score” value read?
Its value is 0.328.

With AGCTCGCG as the sequence, how does the “PBM E-score” value read?
The value was 0.0686.

For AAAAGACG, which “PBM E-score” value is on record?
The value was 0.0892.

For ACAAGTTA, which “PBM E-score” value is on record?
The value was 0.0555.

Which “PBM E-score” value does the source give for ACGTCTGC here?
Its value is -0.215.

With ATGAAGAA as the sequence, how does the “PBM E-score” value read?
The value was 0.127.

Which “PBM E-score” value does the source give for GCTCATAC here?
Its value is -0.149.

How did the “PBM E-score” value turn out when GAAAGCCC was run?
Its value is -0.00607.

Which “PBM E-score” value does the source give for AGTCTATG here?
Its value is -0.26.

ATCAAGCA was tested. Which “PBM E-score” value did it give?
Its value is -0.0731.

For CTGCGGTC, which “PBM E-score” value is on record?
Its value is -0.0472.

For TATGACGA, which “PBM E-score” value is on record?
The value was -0.0329.

Which “PBM E-score” value does the source give for CCAGTATA here?
The value was -0.0509.

CCTTAAAA was tested. Which “PBM E-score” value did it give?
The value was 0.00433.

ATCCATAG was tested. Which “PBM E-score” value did it give?
Its value is -0.138.

How did the “PBM E-score” value turn out when GGCTGGTA was run?
Its value is -0.0436.

With AGGTGCAG as the sequence, how does the “PBM E-score” value read?
The value was -0.134.

For CCATCGGG, which “PBM E-score” value is on record?
The value was 0.0347.

With AGTTGTGC as the sequence, how does the “PBM E-score” value read?
Its value is -0.0294.

With CCGATTCC as the sequence, how does the “PBM E-score” value read?
Its value is 0.164.

For ATACTGGC, which “PBM E-score” value is on record?
Its value is -0.23.

GAATTCTC was tested. Which “PBM E-score” value did it give?
The value was 0.146.

For AGAGCCCA, which “PBM E-score” value is on record?
The value was -0.127.

AACGTGGT was tested. Which “PBM E-score” value did it give?
The value was -0.158.

With GATCCACC as the sequence, how does the “PBM E-score” value read?
Its value is -0.199.

How did the “PBM E-score” value turn out when ATTCGGGC was run?
The value was 0.141.

How did the “PBM E-score” value turn out when CTACTCAC was run?
The value was 0.00961.

Which “PBM E-score” value does the source give for ACTCCACA here?
The value was -0.122.

For AACGGTTG, which “PBM E-score” value is on record?
Its value is -0.0137.

How did the “PBM E-score” value turn out when AGACGGAA was run?
The value was 0.277.

How did the “PBM E-score” value turn out when ACGAATTA was run?
The value was 0.124.

With GAGTATAA as the sequence, how does the “PBM E-score” value read?
The value was 0.198.

TCCCTAAA was tested. Which “PBM E-score” value did it give?
The value was -0.0674.

With AAAGTGAA as the sequence, how does the “PBM E-score” value read?
The value was -0.0362.

How did the “PBM E-score” value turn out when GTAATTTA was run?
Its value is 0.162.

For GCGCGGAC, which “PBM E-score” value is on record?
The value was 0.126.

With CCCAATGC as the sequence, how does the “PBM E-score” value read?
Its value is -0.287.

CCCTGGTC was tested. Which “PBM E-score” value did it give?
Its value is -0.308.

ACCTGAAT was tested. Which “PBM E-score” value did it give?
Its value is 0.114.

ACCAAAGG was tested. Which “PBM E-score” value did it give?
Its value is -0.218.

CGTTTTAA was tested. Which “PBM E-score” value did it give?
The value was 0.144.

How did the “PBM E-score” value turn out when CTAGATTC was run?
The value was -0.0473.

Which “PBM E-score” value does the source give for CTAACTCA here?
The value was -0.045.

ATCGAACA was tested. Which “PBM E-score” value did it give?
Its value is 0.0698.

Which “PBM E-score” value does the source give for CGGATGGC here?
The value was 0.123.

GCGTTCGA was tested. Which “PBM E-score” value did it give?
The value was 0.0373.

Which “PBM E-score” value does the source give for ACATTTTA here?
Its value is 0.0272.

GCCAGAGC was tested. Which “PBM E-score” value did it give?
The value was -0.282.

For GGCGCAAA, which “PBM E-score” value is on record?
The value was -0.00247.

Which “PBM E-score” value does the source give for AGCCCAAA here?
Its value is 0.056.

How did the “PBM E-score” value turn out when CCCGCCAA was run?
Its value is -0.0677.

Which “PBM E-score” value does the source give for CGGGCGGC here?
Its value is 0.0253.

ACAGCAGT was tested. Which “PBM E-score” value did it give?
The value was 0.0227.

For CGAAGCGA, which “PBM E-score” value is on record?
Its value is 0.146.

Which “PBM E-score” value does the source give for AAACTCAA here?
Its value is 0.184.

How did the “PBM E-score” value turn out when ATGTTTCC was run?
Its value is 0.176.

CGTGGGTC was tested. Which “PBM E-score” value did it give?
The value was -0.113.

How did the “PBM E-score” value turn out when AGAGGGAC was run?
The value was -0.159.

How did the “PBM E-score” value turn out when AAGTGACT was run?
Its value is -0.121.

With CCTGGTGA as the sequence, how does the “PBM E-score” value read?
The value was -0.146.

How did the “PBM E-score” value turn out when CAATCTCC was run?
Its value is -0.0485.

With AACCCGAC as the sequence, how does the “PBM E-score” value read?
Its value is 0.0624.

With CAACAATA as the sequence, how does the “PBM E-score” value read?
The value was 0.06.

For ACCCCCCT, which “PBM E-score” value is on record?
The value was -0.402.

TACTGTCA was tested. Which “PBM E-score” value did it give?
Its value is -0.0937.

For AGGATTCA, which “PBM E-score” value is on record?
The value was -0.194.

With CTCCAAGA as the sequence, how does the “PBM E-score” value read?
Its value is -0.133.

For CTGGAGTC, which “PBM E-score” value is on record?
The value was -0.31.

For CTACCGAA, which “PBM E-score” value is on record?
Its value is 0.105.

For CGCCTAAC, which “PBM E-score” value is on record?
Its value is -0.0428.

With GCTAGTGA as the sequence, how does the “PBM E-score” value read?
The value was -0.0791.

Which “PBM E-score” value does the source give for CCGGTTAG here?
The value was 0.205.
